# Assay results as given in patent US20090227683A1, “Compositions for Providing an Analgesic Effect to the Skin” (priority 2008, published 2009).
# System: Albino male CD-1 mice (neurogenic inflammation induced by Resiniferatoxin)
# Assay: Resiniferatoxin neurogenic inflammation model in the mouse ear (ear edema)
# Assay type: in vivo
# Conditions: summary of Tables 2 to 4
# Excerpt: Neurosensory inflammation, also referred to as neurogenic inflammation, is a type of inflammation triggered by sensory nerve activation in skin. Certain natural substances that act on vanilloid receptors cause sensory nerves (C-fibers) to release inflammatory neuropeptides. In mouse skin, an edema response occurs rapidly upon application of a vanilloid receptor activator, such as capsaicin or resiniferatoxin (RTX).
# Albino male CD-1 mice, 7-9 weeks old, were used. […] A 20-μL volume of Resiniferatoxin (0.05%) prepared in acetone was applied to the left ears (7 mice per treatment group). The right ear was not treated. Test agents were prepared in a 70% ethanol/30% propylene glycol vehicle and applied to the left ear (20 μL) immediately after resiniferatoxin challenge. The percent inhibition was calculated by comparing treatments to resiniferatoxin alone. Anti-neurogenic inflammation effects of compounds are evident as an inhibition of the increase in ear weight.
smiles,measurement,value
"CCN(CC)CC(=O)Nc1c(C)cccc1C [Lidocaine, reference compound]","inhibition of the neurogenic inflammatory response to resiniferatoxin, in words",active
